Results are given in words; binding and its absence hold for the method and conditions named. A result given as binding can be weak or reduced; the word gives no strength.
Biological target: Mycobacterium tuberculosis β-clamp (Mycobacterium tuberculosis) (UniProt P9WNU1)
Assay: cryo-EM structure; both purified

Amino acid sequences for entries named in this document (tags omitted). A change or cut given only in a name is not applied to a line headed by its entry.
UniProt P9WNU1: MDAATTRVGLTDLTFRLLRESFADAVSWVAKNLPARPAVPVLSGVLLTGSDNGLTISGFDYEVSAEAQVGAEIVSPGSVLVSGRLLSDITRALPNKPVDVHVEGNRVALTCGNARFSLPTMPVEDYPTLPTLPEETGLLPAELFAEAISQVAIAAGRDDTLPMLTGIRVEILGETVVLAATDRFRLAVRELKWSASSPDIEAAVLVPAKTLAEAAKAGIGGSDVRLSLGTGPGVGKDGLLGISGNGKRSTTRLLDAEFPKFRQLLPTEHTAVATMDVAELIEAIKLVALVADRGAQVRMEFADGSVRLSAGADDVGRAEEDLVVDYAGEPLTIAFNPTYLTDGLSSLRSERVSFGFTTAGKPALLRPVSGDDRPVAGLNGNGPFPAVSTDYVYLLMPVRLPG
UniProt P9WNT7: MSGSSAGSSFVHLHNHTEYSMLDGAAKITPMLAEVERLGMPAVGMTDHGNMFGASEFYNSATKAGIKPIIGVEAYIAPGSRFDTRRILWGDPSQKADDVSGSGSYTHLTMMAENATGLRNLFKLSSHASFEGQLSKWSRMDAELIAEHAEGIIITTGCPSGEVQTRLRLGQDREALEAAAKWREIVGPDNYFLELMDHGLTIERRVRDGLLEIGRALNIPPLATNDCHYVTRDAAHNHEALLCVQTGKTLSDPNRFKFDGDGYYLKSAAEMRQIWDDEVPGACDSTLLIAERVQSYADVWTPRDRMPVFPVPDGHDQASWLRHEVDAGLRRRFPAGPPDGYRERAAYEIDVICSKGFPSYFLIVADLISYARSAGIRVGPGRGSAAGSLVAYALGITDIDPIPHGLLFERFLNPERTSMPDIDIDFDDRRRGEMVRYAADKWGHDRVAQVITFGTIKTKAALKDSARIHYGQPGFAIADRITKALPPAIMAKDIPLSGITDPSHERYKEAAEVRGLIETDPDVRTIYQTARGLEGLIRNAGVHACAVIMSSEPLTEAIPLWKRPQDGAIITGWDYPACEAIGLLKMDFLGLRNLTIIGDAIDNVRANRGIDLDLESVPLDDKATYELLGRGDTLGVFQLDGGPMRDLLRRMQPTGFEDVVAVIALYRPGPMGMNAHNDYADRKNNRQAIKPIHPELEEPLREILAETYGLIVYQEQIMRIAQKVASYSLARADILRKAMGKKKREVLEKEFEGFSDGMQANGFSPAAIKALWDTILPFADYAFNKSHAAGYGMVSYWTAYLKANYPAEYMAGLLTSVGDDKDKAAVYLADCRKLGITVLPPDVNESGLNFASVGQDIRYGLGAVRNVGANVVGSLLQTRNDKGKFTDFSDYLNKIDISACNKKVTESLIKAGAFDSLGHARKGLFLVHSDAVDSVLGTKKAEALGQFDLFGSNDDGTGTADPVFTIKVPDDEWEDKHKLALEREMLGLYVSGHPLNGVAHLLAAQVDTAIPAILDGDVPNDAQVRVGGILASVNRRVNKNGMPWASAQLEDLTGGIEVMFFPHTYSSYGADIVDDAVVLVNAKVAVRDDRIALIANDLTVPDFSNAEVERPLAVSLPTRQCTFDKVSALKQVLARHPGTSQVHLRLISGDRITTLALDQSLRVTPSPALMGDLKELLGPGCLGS

Mycobacterium tuberculosis DnaE1 polymerase (from UniProt P9WNT7) (enzyme)
binding: binds
